Assay results: patent US20080300258A1, “ANHYDROUS CIPROFLOXACIN HYDROCHLORIDE” (priority 2007, published 2008)

Assays:
[1] = eight weeks of storage at 40 degrees C., relative humidity 75%
[2] = background dissolution studies; cited from earlier work

single impurity after storage [1] [%] | Structure (SMILES) | dissolution rate, hydrated form compared with anhydrous form [2]
0.06 | O=C(O)c1cn(C2CC2)c2cc(N3CCNCC3)c(F)cc2c1=O [1-cyclopropyl-6-fluoro-1,4-dihydro-4-oxo-7-(1-piperazinyl)-3-quinolinecarboxylic acid] | 
 | O=C(O)c1cn(C2CC2)c2cc(N3CCNCC3)c(F)cc2c1=O [hydrated form of ciprofloxacin] | significantly lower dissolution rate than the anhydrous form
